Source: the supplement of paper PMC8497498
The list shows a part of the results. The data scatter; read single values as rough.

What was measured:
Settings in all cases: 10 µM
[1] = tested on: Plasmodium vivax liver stage (primary human hepatocyte culture); assay: hypnozoite quantity inhibition (% inhibition); higher = more active against hypnozoites
[2] = tested on: Plasmodium vivax liver stage (primary human hepatocyte culture); assay: schizont net growth area inhibition (% inhibition); higher = more active against liver schizonts
[3] = tested on: primary human hepatocytes; assay: hepatic nuclei reduction relative to DMSO (100 - % of negative control); higher = more toxic to hepatocytes
[4] = assay mode: Prophylactic (treated before or shortly after infection), fixed day 6 post-infection
[5] = assay mode: Radical Cure (treated from day 5 post-infection for 3 days), fixed day 8 post-infection

Structure (SMILES) | hypnozoite quantity inhibition [1, 4] | hypnozoite quantity inhibition [1, 5] | schizont net growth area inhibition [2, 4] | schizont net growth area inhibition [2, 5] | hepatic nuclei reduction [3, 4] [%] | hepatic nuclei reduction [3, 5] [%]
O=C(Nc1c(O)cccc1-c1nc2c(C(=O)O)cccc2o1)c1cc(-c2ccccc2)on1 | 7 | -15 | 17.4 | -41.5 | 2 | 10
COc1ccc(C2N(C)c3ccccc3N2C)cc1 | -23.6 | 58.8 | -36.9 | 55.5 | -9 | 3
CN(C)c1ccc(N=Cc2ccc(N3CCOCC3)cc2)cc1 | -20.2 | 29.2 | 27.8 | -18.1 | 6 | -1
CCOc1cccc(C(=O)Nc2ccc(-c3nc4ccccc4[nH]3)cc2)c1 | 4.6 | 22.1 | 39.8 | 21.9 | 6 | -2
Nc1nccc2ccc(-c3ccc4nccn4c3)cc12 | -108 | -34 | 6.8 | 64.8 | -4 | 9
CCCc1ccc(S(=O)(=O)Nc2ccc(CN3CCN(CC4CC4)CC3)cc2)cc1 | -54 | 3 | -2 | -66.7 | -11 | -4
CC1CC(C)CN(C(=O)c2ccc(Cl)cc2Cl)C1 (centres undefined) | -53.3 | 22.1 | -3.2 | 22 | -9 | -6
COc1ccc(C2=NN(C3CCCCCC3)C(=O)C2(C)C)cc1OCCCCOc1ccc(-c2nn[nH]n2)cc1 | 27 | 6 | -36.2 | 27.8 | -2 | -7
COc1cccc(-c2nc3c(N4CCCC4)cccc3n2CC2CCCN2)n1 (centres undefined) | 38 | -2 | -23.7 | -145 | -4 | -21
OC(c1cc(C(F)(F)F)nc2c(C(F)(F)F)cccc12)C1CCCCN1 (racemic) | 19 | 41 | 55.7 | 85.3 | -4 | 12
CCOc1ccc(-c2nc(CNCCc3ccc(F)cc3)cs2)cc1 | -22 | -22 | 1.2 | 22.9 | -18 | -3
Nc1ccc2ncnc(Nc3ccc(OCc4cccc(F)c4)c(Cl)c3)c2c1 | -70 | -75 | -35.7 | -12.3 | -12 | -16
CCOC(=O)c1c(C)n(-c2ccc(Cl)cc2)c2ccc(OC(=O)C=Cc3ccccc3)cc12 | 3.9 | 38.2 | 30.9 | -16 | -8 | 1
Clc1cccc(CO[C@H]2CCc3ccccc3[C@@H]2n2ccnn2)c1 | -15 | 24 | -21.1 | -14.1 | -2 | 6
Cc1ccc2c(c1C)NC(=O)C21NN=C(c2ccccc2)S1 (centres undefined) | 24 | 3 | 47.5 | -18.1 | 16 | 19
CCOc1ccc2nc(C)cc(Nc3ccc(N(C)C)cc3)c2c1 | 6.3 | 21 | -4.5 | 72.3 | 14 | -1
CC(C)(C)OC(=O)N1CCC(Cn2nc(-c3cnc4ccccc4c3)c3c(N)ncnc32)CC1 | -21 | -8 | 8.1 | 17 | 4 | 0
COc1cccc(CC(=O)N2CCC(n3c(C)nc4ccc(F)cc43)CC2)c1 | 34 | -18 | 74.3 | -20 | 6 | 4
CCCCN(CCCC)S(=O)(=O)c1ccc(NC(=O)c2ccco2)cc1 | 4.6 | 72.5 | -1.2 | 59.6 | -4 | 2
Cc1cc(C)c2c(c1)OCN(Cc1ccccc1Cl)C2 | -6.5 | 45 | 32.1 | 13.6 | 1 | 0
CC1=C(CC(=O)c2cccc([N+](=O)[O-])c2)C(=O)c2ccccc2C1=O | -36.2 | 31.3 | 12.1 | -4 | -7 | -8
Cc1cc(NC(=O)c2ccc(-c3ccccc3)cc2)no1 | -4.4 | 26.5 | 20.8 | -46 | 3 | -8
CCN1CCN(c2cc(C)c3cc(NC(=O)c4ccc(OC)c(OC)c4)ccc3n2)CC1 | -1.3 | -38.9 | 96.4 | -64 | -3 | -10
CC(C)(C)NCc1cc(C(C)(C)C)cc(-c2ccc(Cl)cc2)c1O | -5 | 36 | 44.2 | 7.9 | -11 | -7
CCCCc1c(CCC)c(=N)c2ccccc2n1C | -19.1 | 47.3 | -73.6 | -50.7 | 1 | -2
COCCN(C(=O)Cc1cccs1)C(C(=O)NCc1ccc(OC)cc1)c1ccc(C(C)C)cc1 (centres undefined) | 2.5 | 21 | -27.1 | 31.1 | -5 | -13
OC(CNC1CCCCC1)Cn1c2ccccc2c2ccccc21 (centres undefined) | 64.5 | 18.3 | 86.5 | -29.3 | 7 | -8
Cc1ccc(Oc2ccc(NC(=O)CNc3ccccc3N3CCCC3=O)cc2)cc1 | 11 | -38 | -25.1 | -25.7 | -3 | 3
CN(C)c1ccc(C=Cc2nc(=O)c3ccccc3o2)cc1 | 47 | 22.1 | 58.3 | -34.3 | -7 | 12

Two entries from above, as comma-separated lines.
Structure (SMILES),"hypnozoite quantity inhibition [1, 4]","hypnozoite quantity inhibition [1, 5]","schizont net growth area inhibition [2, 4]","schizont net growth area inhibition [2, 5]","hepatic nuclei reduction [3, 4] [%]","hepatic nuclei reduction [3, 5] [%]"
CC(C)(C)OC(=O)N1CCC(Cn2nc(-c3cnc4ccccc4c3)c3c(N)ncnc32)CC1,-21,-8,8.1,17,4,0
COc1cccc(CC(=O)N2CCC(n3c(C)nc4ccc(F)cc43)CC2)c1,34,-18,74.3,-20,6,4
